Values of other authors in US20240229143A1, “FORMULATION OF PEPTIDE IMMUNOTHERAPIES” (priority 2020, published 2024).

Settings: single amino acid

N[C@@H](Cc1ccc(O)cc1)C(=O)O [Tyrosine (Tyr)]
Log D7.4: 0.55
